Our source for the binding values is paper PMC11157265.

Results are given in words; binding and its absence hold for the method and conditions named. Tags and fused reporters may be left off the sequences shown.

The target in this experiment is PduA_GGSST (PduA with a 30 residue C-terminal extension, six repeats of GGSST) (C. freundii). Nature of the experiment: native gel or EMSA; band shift on native gel run at pH 9.5 instead of pH 8.5; PduL added to PduA, A63R or A^GGSST; both purified.

B1: PduL (Citrobacter freundii), His-tag cleaved (enzyme, UniProt B1VB71 1-210)
chain: MDKQQLETTVTKVLDEMRERPIPLGISNRHIHLCAEDYDRLFPNHPISEKKELLQPGQYAADQTVTLVGPKGQLKNVRLLGPLRSTSQVEISRTDARTLGIAAPLRMSGSIEGTPGVRLISPFAELDLASGVIVAQRHIHMSPLDALILRVSHGDKVSVAINGDERRLIFDNVAVRVSPDMRLEMHIDTDEANAAGADNPQAFATLVSPR
Take B1: the binding entry is on record as “no binding”.
